The source of these data is article PMC4460818.

Protein sequences, listed by entry. Tags and fused reporters are not part of them.
UniProt P53350: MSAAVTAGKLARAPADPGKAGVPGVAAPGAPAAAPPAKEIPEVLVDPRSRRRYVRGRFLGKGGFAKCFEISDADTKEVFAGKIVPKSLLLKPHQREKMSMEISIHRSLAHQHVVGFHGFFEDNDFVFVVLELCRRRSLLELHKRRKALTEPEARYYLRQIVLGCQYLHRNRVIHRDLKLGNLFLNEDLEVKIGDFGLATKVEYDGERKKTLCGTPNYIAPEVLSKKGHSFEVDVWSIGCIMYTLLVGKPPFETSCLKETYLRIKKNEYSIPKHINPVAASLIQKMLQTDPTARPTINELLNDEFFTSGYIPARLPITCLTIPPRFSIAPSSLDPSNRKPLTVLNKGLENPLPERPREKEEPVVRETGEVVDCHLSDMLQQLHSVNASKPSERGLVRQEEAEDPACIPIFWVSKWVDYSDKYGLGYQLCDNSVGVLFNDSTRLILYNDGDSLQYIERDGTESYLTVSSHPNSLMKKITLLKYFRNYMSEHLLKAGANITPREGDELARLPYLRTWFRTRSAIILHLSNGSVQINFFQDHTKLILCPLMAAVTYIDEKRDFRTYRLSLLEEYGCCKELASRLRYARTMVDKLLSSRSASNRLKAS
UniProt Q15208: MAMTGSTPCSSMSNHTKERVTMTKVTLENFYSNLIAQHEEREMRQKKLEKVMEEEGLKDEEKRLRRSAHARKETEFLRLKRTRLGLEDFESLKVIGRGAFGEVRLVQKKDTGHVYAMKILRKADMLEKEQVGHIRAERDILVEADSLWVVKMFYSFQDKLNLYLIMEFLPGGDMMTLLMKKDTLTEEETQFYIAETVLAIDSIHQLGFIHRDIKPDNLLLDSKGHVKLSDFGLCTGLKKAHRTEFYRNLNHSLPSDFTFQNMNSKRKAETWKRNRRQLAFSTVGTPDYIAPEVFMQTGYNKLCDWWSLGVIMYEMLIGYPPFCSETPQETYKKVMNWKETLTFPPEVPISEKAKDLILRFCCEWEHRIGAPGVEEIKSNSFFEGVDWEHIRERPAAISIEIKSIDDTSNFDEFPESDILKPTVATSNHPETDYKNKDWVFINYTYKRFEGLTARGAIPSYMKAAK

Experiment [1] deals with GST-PLK1 fusion protein (UniProt P53350). The experiment is described as follows: pull-down; GST or GST-fusion protein on agarose beads incubated with purified dissolved MBP-tagged proteins in PBS, 0.1% Triton X-100, 0.5 mM DTT, 4 °C, 3-8 hours; SDS-PAGE, CBB stain; bands quantified by ImageJ for the Mob1A pull-down; both purified.
Experiment [2] deals with FLAG-NDR1 wild type (human) (UniProt Q15208). The experiment is described as follows: co-IP; 293T cells transiently transfected with FLAG-NDR1 together with GFP or GFP-PLK1; immunoprecipitation with Flag antibody or IgG; immunoblot with Flag and GFP antibodies.

These are yes or no findings as the source states them, for the method shown. For some assays here: Binding seen in cells or lysates may run through a third protein. Some binding calls cover weakened binding; strength is not graded here.

As for “MBP-NDR1 wild type (from UniProt Q15208 1-465) (enzyme)”, in experiment [1], the binding result is “binds”.
For “GFP-PLK1 (from UniProt P53350 1-603) (enzyme)”, in experiment [2], the binding entry was “binds”.
